The values that follow come from CN112062851A.

Sequences of proteins named here, by UniProt entry; tags and fusion partners are left off. Residues count along the entry.
UniProt Q02223, residues 1-54: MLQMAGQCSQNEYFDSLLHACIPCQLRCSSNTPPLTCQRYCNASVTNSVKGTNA

Results are given in words; binding and its absence hold for the method and conditions named. Some results given as binding are weak or reduced against the parent protein; the word gives no strength.

For test [1], the target named is RD103A CAR (靶向BCMA的嵌合抗原受体). Description: flow cytometry on 103A CAR-T cells.
Test [2] addresses RD103A CAR (靶向BCMA的嵌合抗原受体). In words: flow cytometry on Jurkat-103A scFv cells, FITC-BCMA 1:100.

On to “FITC-BCMA抗原 (ACRObiosystems, BCA-HF254) (from UniProt Q02223 1-54) (receptor)”, for which the binding entry in test [1] and in test [2] was “binds” each time.
